Laboratory results: PubChem BioAssay AID504467 (National Center for Advancing Translational Sciences (NCATS), 2011)
The whole screen tested about 330,000 compounds, of which about 7,700 (2.3%) were called active. The inconclusive results got no clear call from the source; some entries with a clear call stand among them for comparison. The call rests on the fitted dose curve; in most records, active means well fitted inhibition curve with a large enough effect; inconclusive means small, poorly fitted or top-dose-only effect, or effect the other way; inactive means flat fitted curve, though single readings scatter. A potency beside an inconclusive call is a rough fit, not a confirmed value.

assay: qHTS screen for small molecules that inhibit ELG1-dependent DNA repair in human embryonic kidney (HEK293T) cells expressing luciferase-tagged ELG1; conditions: HEK293T ELG1-luciferase reporter, luminescence, 16 h, DNA damage induced by 5-fluorouridine; activity change, negative = inhibition: at 46.1 µM (top of the series); further: nearly all actives have a fitted effect of over 55% in size
In short: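 Overnight (16 hr) co-exposure of 2,000 cells/well to 5-fluorouridine and compound at 37 °C preceded detection. Luciferase was quantified via ONE-Glo luminescence; loss of signal denotes inhibition.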
On the % scale 0 is the no-effect control and ±100 the full control effect; potency means the concentration at half of the fitted maximal effect.

SMILES	Potency	activity change, negative = inhibition
CC1CCCN(C(=O)CNC(=O)c2ccco2)C1 (configuration not stated)	inconclusive: 23.1 µM [activator, partial curve]	–
Cc1ccccc1OCCCCn1cnc2ccccc21	inconclusive: 29.1 µM [activator, single point]	–
OCCN1CCN(C(=S)c2ccc(Cl)c(Cl)c2)CC1	–	inactive: 8.71%
CC1CCN(C(=O)Cn2cc(C(=O)C3CC3)c3ccccc32)CC1	–	inactive: 9.72%
CCCCC(=O)Nc1ccc(NC(=O)C2CC2)cn1	inconclusive: 20.6 µM [activator, partial curve]	–
Cc1ccc(Nc2nnc(SC(C)C(=O)Nc3c(C)n(C)n(-c4ccccc4)c3=O)s2)cc1 (configuration not stated)	–	inactive: -0.894%
CC(C)N1CCN(Cc2cccn2-c2nccs2)CC1CCO (configuration not stated)	inconclusive: 23.1 µM [inhibitor, single point]	–
CCCCn1c(SCC(=O)N2CCCCC2)nc2cc(S(N)(=O)=O)ccc21	inconclusive: 16.4 µM [inhibitor, single point]	–
Cc1ccc2c(COC(=O)c3ccccc3F)cc(=O)oc2c1	inconclusive: 4.11 µM [activator, full curve]	–
CCN=C1S/C(=C\c2cn(CC)c3ccccc23)C(=O)N1CC	inconclusive: 32.6 µM [inhibitor, single point]	–
CN=C1SC(CC(=O)Nc2sc3c(c2C#N)CCCC3)C(=O)N1C (configuration not stated)	inconclusive: 20.6 µM [inhibitor, partial curve]	–
CC(C)(C)c1ccc(/C=N/NC(=O)c2ccccn2)cc1	inconclusive: 0.461 µM [activator, full curve]	–
CC(C)Oc1cccc(C(=O)C2CCCN(Cc3cccn3-c3cccnc3)C2)c1 (configuration not stated)	inconclusive: 23.1 µM [inhibitor, partial curve, poor fit]	–
CC(C)CC(C(=O)Nc1ccccc1)N1C(=O)C2C3C=CC(C3)C2C1=O (configuration not stated)	–	inactive: 8.65%
CCOC(=O)CSc1nc(-c2ccncc2)ccc1C#N	inconclusive: 3.66 µM [activator, partial curve]	–
CC(=NNS(=O)(=O)c1cccc([N+](=O)[O-])c1)c1ccc(-n2ccnc2)cc1	–	inactive: 1.59%
O=C(Nc1ccncc1)c1ccc(Cl)c(S(=O)(=O)N2CCCCC2)c1	inconclusive: 6.51 µM [inhibitor, single point]	–
Cc1ccc(NC(=O)c2ccc(Cl)cc2[N+](=O)[O-])nc1	–	inactive: -0.323%
COc1ccc(/C=C/C(=O)N(C)CC(=O)Nc2cccc(F)c2)cc1S(=O)(=O)N1CCCCC1	inconclusive: 29.1 µM [inhibitor, single point]	–
O=C1N/C(=C/c2ccc(N3CCOCC3)o2)C(=O)N1c1cccc(Cl)c1	inconclusive: 20.6 µM [activator, partial curve]	–
COCCn1nnnc1CN(CCc1ccccc1)Cc1cc2ccc(C)cc2[nH]c1=O	inconclusive: 29.1 µM [inhibitor, partial curve, poor fit]	–
CCOc1cc(NC(=S)Nc2ccccc2)c(OCC)cc1NC(=O)c1ccc(OC)cc1	inconclusive: 16.4 µM [inhibitor, partial curve]	–
CCN(CC)c1ccc(/C=N/Nc2nc(C)cc(C)n2)c(O)c1	inconclusive: 1.16 µM [inhibitor, partial curve, poor fit]	–

SMILES	Potency	activity change, negative = inhibition
Cc1onc(-c2ccccc2)c1C(=O)N/N=C(\N)COc1ccc(Cl)cc1	–	inactive: 2.95%
O=C(Nc1cnn(Cc2ccc(F)cc2)c1)c1noc2c1CCCC2	active: 0.411 µM	–
COc1ccc(N2CCN(C(c3cccs3)C(C)NC(=O)C(=O)N3CCCC3)CC2)cc1 (configuration not stated)	–	inactive: -3.69%
COc1ccc(NC(=O)CN(C)C(=O)c2cn(-c3ccccc3)nc2-c2ccc(OC)cc2)cc1	inconclusive: 20.6 µM [inhibitor, partial curve]	–
O=C(O)/C=C\C(=O)Nc1cccc(NC(=O)c2ccccc2)c1	–	inactive: 5.11%
CCOc1ccc(NC2c3ccccc3C(=O)N2Cc2ccco2)cc1 (configuration not stated)	inconclusive: 20.6 µM [inhibitor, partial curve, poor fit]	–
O=C(Nc1ccc(F)cc1)c1oc2ccccc2c1NC(=O)C1CCCC1	–	inactive: -1.01%
CCNc1nc(NC(C)C)nc(N(C#N)CCOc2ccccc2)n1	inconclusive: 23.1 µM [inhibitor, single point]	–
Cc1occc1C(=O)N/N=C/c1sc(N2CCOCC2)nc1-c1ccccc1	inconclusive: 11.6 µM [inhibitor, partial curve]	–
NC(=O)c1ccsc1NC(=O)CSc1ccccc1F	inconclusive: 18.4 µM [activator, partial curve]	–
CC1=NN(C(=O)c2ccccc2F)C(O)(c2ccc(Cl)cc2)C1 (configuration not stated)	–	inactive: 5.47%
N#Cc1cc2ccccc2nc1SCC(=O)Nc1ccccc1N1CCOCC1	–	inactive: 2.16%
O=[N+]([O-])c1ccccc1-c1ccc(C(=S)N2CCCCC2)o1	inconclusive: 16.4 µM [activator, partial curve]	–
Cc1cc(C)cc(-n2ncc3c2CCCC3NC(=O)CCN2CCCC2=O)c1 (configuration not stated)	–	inactive: 0.525%
CC(C)CC(OC(=O)CC1Sc2ccccc2NC1=O)C(=O)NC1CCCC1 (configuration not stated)	–	inactive: -6.14%
Cc1sc2nc(CN(Cc3cccs3)C(=O)NC3CCCCC3)[nH]c(=O)c2c1C	active: 9.2 µM	–
O=C(NCc1ccccc1)C(c1ccc(O)cc1)N(C(=O)Cn1nnc(-c2cccs2)n1)c1ccc2c(c1)OCCO2 (configuration not stated)	inconclusive: 20.6 µM [inhibitor, partial curve, poor fit]	–
Cc1nn(-c2ccccc2)nc1C(=O)OCC(=O)N1CCC(C)CC1	inconclusive: 29.1 µM [activator, single point]	–
Nc1ccc2c(c1)C(=O)N(c1cccc3ccccc13)C2=O	–	inactive: -4.11%
CC(C)(C)NC(=O)CSc1nc(-c2ccc(F)cc2)cs1	inconclusive: 3.66 µM [activator, full curve]	–
Cc1ccc(C)c(N2CCN(C(=O)CCCCCn3c(=S)[nH]c4ccc(N5CCOCC5)cc4c3=O)CC2)c1	active: 5.8 µM	–
CCN(C[C@H]1N[C@@](Cc2ccccc2)(C(=O)OC)[C@H]2C(=O)N(Cc3ccccc3)C(=O)[C@@H]12)S(=O)(=O)c1ccc(F)cc1	–	inactive: -11.6%
CCC(C)NCCOc1ccccc1C (configuration not stated)	–	inactive: -12.3%

Filtered by structure, the entries above containing a halogen
SMILES	Potency	activity change, negative = inhibition
OCCN1CCN(C(=S)c2ccc(Cl)c(Cl)c2)CC1	–	inactive: 8.71%
Cc1ccc2c(COC(=O)c3ccccc3F)cc(=O)oc2c1	inconclusive: 4.11 µM [activator, full curve]	–
O=C(Nc1ccncc1)c1ccc(Cl)c(S(=O)(=O)N2CCCCC2)c1	inconclusive: 6.51 µM [inhibitor, single point]	–
Cc1ccc(NC(=O)c2ccc(Cl)cc2[N+](=O)[O-])nc1	–	inactive: -0.323%
COc1ccc(/C=C/C(=O)N(C)CC(=O)Nc2cccc(F)c2)cc1S(=O)(=O)N1CCCCC1	inconclusive: 29.1 µM [inhibitor, single point]	–
O=C1N/C(=C/c2ccc(N3CCOCC3)o2)C(=O)N1c1cccc(Cl)c1	inconclusive: 20.6 µM [activator, partial curve]	–
Cc1onc(-c2ccccc2)c1C(=O)N/N=C(\N)COc1ccc(Cl)cc1	–	inactive: 2.95%
O=C(Nc1cnn(Cc2ccc(F)cc2)c1)c1noc2c1CCCC2	active: 0.411 µM	–
O=C(Nc1ccc(F)cc1)c1oc2ccccc2c1NC(=O)C1CCCC1	–	inactive: -1.01%
NC(=O)c1ccsc1NC(=O)CSc1ccccc1F	inconclusive: 18.4 µM [activator, partial curve]	–
CC1=NN(C(=O)c2ccccc2F)C(O)(c2ccc(Cl)cc2)C1 (configuration not stated)	–	inactive: 5.47%
CC(C)(C)NC(=O)CSc1nc(-c2ccc(F)cc2)cs1	inconclusive: 3.66 µM [activator, full curve]	–
CCN(C[C@H]1N[C@@](Cc2ccccc2)(C(=O)OC)[C@H]2C(=O)N(Cc3ccccc3)C(=O)[C@@H]12)S(=O)(=O)c1ccc(F)cc1	–	inactive: -11.6%

(cont.)

SMILES	Potency	activity change, negative = inhibition
COc1cc(-c2noc(CCCC(=O)Nc3ccc(C(N)=O)cc3)n2)cc(OC)c1OC	inconclusive: 10.3 µM [activator, partial curve]	–
CC(C)(C)c1nc(NC(=O)Nc2ccccc2)sc1Br	inconclusive: 29.1 µM [inhibitor, single point]	–
Cc1ccccc1S(=O)(=O)Cc1ccc(C(=O)NC2CCCCCC2)o1	inconclusive: 9.2 µM [inhibitor, partial curve]	–
CC(C)[C@H]1C(=O)Nc2ccccc2N1C(=O)N[C@@H](Cc1ccccc1)C(=O)N[C@@H](Cc1ccccc1)C(=O)O	–	inactive: 18.1%
O=C(COC(=O)/C=C/c1ccc([N+](=O)[O-])cc1)Nc1ccc(F)cc1	inconclusive: 20 µM [activator, partial curve, poor fit]	–
Cc1ccc(-n2c(C)nn(CCOc3ccccc3)c2=O)cc1	inconclusive: 16.4 µM [activator, partial curve]	–
CCOC(=O)C1CCN(C(=O)CCCOc2ccccc2)CC1	inconclusive: 18.4 µM [activator, partial curve]	–
CCc1nnc(NC(=O)CSc2nc3c(c(=O)n2CC)SC(C)C3)s1 (configuration not stated)	inconclusive: 10.3 µM [inhibitor, partial curve]	–
Cc1ccc2cc(CCNC(=O)c3cccc([N+](=O)[O-])c3)c(=O)[nH]c2c1	inconclusive: 18.3 µM [inhibitor, single point]	–
Cc1[nH]n(-c2ccccc2)c(=O)c1C=NCC1CCCO1 (configuration not stated)	inconclusive: 20.6 µM [activator, partial curve]	–
Cc1cccc(C(=O)NNC(=O)c2ccccc2C)c1	inconclusive: 18.3 µM [activator, single point]	–
Cc1ccc2c(c1)sc(=NC(=O)c1cccs1)n2C	inconclusive: 0.461 µM [activator, full curve]	–
C[C@@H](CSc1ccc(Br)cc1)CN1CC[C@H](NC(=O)OCc2ccccc2)CCC1=O	inconclusive: 14.6 µM [inhibitor, partial curve, poor fit]	–
CC(=O)c1ccc(-c2c(C)cc3oc(=O)cc(-c4ccccc4)c3c2C)cc1	inconclusive: 5.8 µM [activator, partial curve, poor fit]	–
CN(C)S(=O)(=O)c1cccc(NC(=O)COc2ccc3ccccc3c2)c1	inconclusive: 11.6 µM [inhibitor, partial curve]	–
O=C(NC(=S)N1CCN(c2nc(-c3ccccc3)cs2)CC1)c1cncc(Br)c1	inconclusive: 23.1 µM [inhibitor, partial curve, poor fit]	–
CCOc1cc(C(=S)N2CCOCC2)ccc1OS(=O)(=O)c1ccc(NC(C)=O)cc1	inconclusive: 16.4 µM [inhibitor, single point]	–
O=[N+]([O-])c1ccccc1-c1cc(-c2cc(Cl)ccc2O)n[nH]1	inconclusive: 11.6 µM [inhibitor, partial curve, poor fit]	–
CC(=O)N(/N=C1\Sc2ccccc2C1=O)c1ccccc1C	inconclusive: 11.2 µM [activator, partial curve, poor fit]	–
O=C(c1ccc(Oc2ccc([N+](=O)[O-])cc2)cc1)N1CCCCCC1	inconclusive: 18.3 µM [inhibitor, partial curve]	–
O=C(Nc1nc(-c2ccc(S(=O)(=O)N3CCOCC3)cc2)cs1)c1ccccc1	active: 12.6 µM	–

Quoted at random: 2 compounds from above.
SMILES	Potency	activity change, negative = inhibition
CCOC(=O)C1CCN(C(=O)CCCOc2ccccc2)CC1	inconclusive: 18.4 µM [activator, partial curve]	–
CC(C)[C@H]1C(=O)Nc2ccccc2N1C(=O)N[C@@H](Cc1ccccc1)C(=O)N[C@@H](Cc1ccccc1)C(=O)O	–	inactive: 18.1%
